Assay results: US20230272047A1
Results are given in words; binding and its absence hold for the method and conditions named. Some results given as binding are weak or reduced against the parent protein; the word gives no strength. For part of these data: Sequences can lack the tags named with a protein.

Legend:
[1] = target: human transferrin receptor 1 ectodomain, biotinylated (human) (UniProt P02786); experiment: yeast surface display, flow cytometry
[2] = target: human transferrin receptor 1 ectodomain, biotinylated (human) (UniProt P02786); experiment: yeast surface display, flow cytometry, 100,000 cells
[3] = target: human transferrin receptor 1 ectodomain, biotinylated (human) (UniProt P02786); experiment: single concentration biolayer interferometry (1 µM design)

Binder | binding [1] | binding [2] | binding [3]
2DS25 displayed on the yeast surface as Myc tagged Aga2p fusion protein (designed binder, not shown: large carriers; small tags and cut ends) DEEEIQKAIEELLRKGVSEEEAAIIIAQRFNVAVVVVVQDERQAKHISEYIRRYIPEADVILFANIVVIKVETEELRKRVWEAAQKAY | binds | binds | 
3DS4 (designed binder) DEEEEFKRRVQEYQEKYKNENDERDAEAALRAFNAVVVIVVRSEEEAERIAQEIRDRVPEAQVIIYNNLVVIRVDSREAAERVWKIAQEAL |  |  | binds
